Data reported in PubChem BioAssay AID1259415 (National Center for Advancing Translational Sciences (NCATS), 2018).
About 18,000 (4.4%) of roughly 410,000 compounds were called active. Inconclusive results, whose numbers are uncertain, are shown with a selection of clear calls. Cut-off read from the data, not from the text of the source: active = activity change below about -60%; inconclusive = no clear call, values can overlap the other calls; inactive = above about -39%.

Assay: qHTS Assay for inhibitors of the human cytomegalovirus (HCMV)
Conditions: HFF cells, HCMV-luciferase reporter, 72 h; at 57.5 µM; hits give low values
Outline: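 Two-dose cell screen: HFF monolayers treated with compounds and infected with luciferase-expressing HCMV at 1 PFU/cell, 72 h at 37C, then lysed for luciferase measurement.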
% is set by controls: 0 for no effect and ±100 for the full control effect.

Question: With CC1(C(=O)Nc2ccc3nc[nH]c3c2)CCN1C(=O)C/C=C/c1ccccc1 (stereo unspecified) as the compound, how does the activity change, negative = inhibition read?
Answer: inconclusive: -41.8%

Question: With Oc1ccc(Cl)cc1CNc1cnc2ccccc2c1 as the compound, how does the activity change, negative = inhibition read?
Answer: inactive: 22%

Question: Which activity change, negative = inhibition does the source give for CC1CCN(CCCCOc2ccc(Br)cc2)CC1 here?
Answer: inconclusive: -42%

Question: With O=c1[nH]c2ccccc2n1C1CCN(C(CCc2ccccc2)c2nnnn2-c2ccc3c(c2)OCCO3)CC1 (stereo unspecified) as the compound, how does the activity change, negative = inhibition read?
Answer: active: -104%

Question: With Cc1cc(-c2ccccc2)nc(SCC(=O)N2CCCC2)n1 as the compound, how does the activity change, negative = inhibition read?
Answer: inconclusive: -49%

Question: With Cc1ccc(C(=O)N/C(=C\c2ccc(-c3cccc([N+](=O)[O-])c3)o2)C(=O)NCCCN2CCOCC2)cc1 as the compound, how does the activity change, negative = inhibition read?
Answer: active: -62.2%

Question: Which activity change, negative = inhibition does the source give for Cc1cccc(CN2CCC(Oc3ccc(C(=O)N4CCCC4)cc3)CC2)n1 here?
Answer: inactive: -30.9%

Question: With Cc1ccc(-n2nc(C)c3nc(CCC(=O)Nc4cccc(F)c4)c(=O)n(C)c32)cc1 as the compound, how does the activity change, negative = inhibition read?
Answer: inactive: -11.4%

Question: Which activity change, negative = inhibition does the source give for Clc1ccc(-c2noc(-c3cccnc3NCc3ccco3)n2)cc1 here?
Answer: inactive: 81.9%

Question: For Cc1c(C(=O)O/N=C(\N)c2ccccn2)cccc1[N+](=O)[O-], which activity change, negative = inhibition is on record?
Answer: inactive: 8.4%

Question: Which activity change, negative = inhibition does the source give for CCNC(=O)O/N=C1\CCCCC1c1ccc([N+](=O)[O-])cc1[N+](=O)[O-] (stereo unspecified) here?
Answer: inconclusive: -47.3%

Question: Which activity change, negative = inhibition does the source give for O=C(Nc1ccccc1Cl)OC1CN2CCC1CC2 (stereo unspecified) here?
Answer: inactive: 8.59%

Question: With CC(=O)Oc1c(C)cc(Cl)cc1C(=O)Nc1ccc([N+](=O)[O-])cc1Cl as the compound, how does the activity change, negative = inhibition read?
Answer: active: -98.4%

Question: For COc1ccccc1C1CCN(C(=O)c2cnn(-c3ccccc3)c2C)CC1, which activity change, negative = inhibition is on record?
Answer: inactive: -0.53%

Question: For COc1ccccc1CNC(=O)CCNS(=O)(=O)c1ccc2c(c1)oc(=O)n2C, which activity change, negative = inhibition is on record?
Answer: inconclusive: -40.3%

Question: Which activity change, negative = inhibition does the source give for COc1cc(/C=N/NC(=O)c2ccc(-c3ccccc3)cc2)cc(OC)c1OC here?
Answer: inconclusive: -54.1%

Question: For Cc1ccc2nc(Nc3nc(C)cc(-c4ccccc4)n3)[nH]c(=O)c2c1, which activity change, negative = inhibition is on record?
Answer: inconclusive: -45.3%

Question: For c1ccc2c(Nc3nc(N4CCOCC4)c4ccccc4n3)cccc2c1, which activity change, negative = inhibition is on record?
Answer: inactive: -32.2%

Question: For Cc1cc(C)cc(NC(=O)c2c(C)oc3nc(C)nc(N4CCCC4)c23)c1, which activity change, negative = inhibition is on record?
Answer: inconclusive: -40.9%

Question: For CC(C)CCn1c(=O)c2cccnc2n(CC(=O)Nc2ccccc2F)c1=O, which activity change, negative = inhibition is on record?
Answer: inconclusive: -43.4%

Question: Which activity change, negative = inhibition does the source give for COC(=O)c1ccc(NC(=O)c2ccc3nsnc3c2)cc1 here?
Answer: inconclusive: -42.9%

Question: Which activity change, negative = inhibition does the source give for CCc1nc2ccc(C(=O)N3CCN(C)CC3)cn2c1N(CCC(C)C)CCN(C)C here?
Answer: active: -72.3%

Question: With COc1ccc(OC)c(/C=c2\sc3nc(-c4cccs4)nn3c2=O)c1 as the compound, how does the activity change, negative = inhibition read?
Answer: inactive: 19.9%

Question: With Nc1nc(SCc2c(Cl)cccc2Cl)n[nH]1 as the compound, how does the activity change, negative = inhibition read?
Answer: inactive: -4.34%

Question: For CC(C)(C)NC(=O)CSc1ncnc2c1cnn2-c1ccccc1, which activity change, negative = inhibition is on record?
Answer: inconclusive: -40.9%

Question: For O=C(NC1CCCCC1)C(c1ccco1)N(C(=O)c1csnn1)c1cccc(F)c1 (stereo unspecified), which activity change, negative = inhibition is on record?
Answer: inconclusive: -52.7%

Question: With Cc1nccn1CC1CCc2c(c3ccccc3n2C)C1=O (stereo unspecified) as the compound, how does the activity change, negative = inhibition read?
Answer: inconclusive: -56.5%

Question: Which activity change, negative = inhibition does the source give for Cc1cc(C)cc(OCC(=O)Nc2ccc(N3CCOCC3)cc2N2CCOCC2)c1 here?
Answer: inconclusive: -40.8%

Question: With Cc1cccc(C)c1NC(=O)c1sc(-n2nc(C)c(Cc3ccc4c(c3)OCO4)c2C)nc1C as the compound, how does the activity change, negative = inhibition read?
Answer: inactive: 6.28%

Question: For CCOC(=O)c1sc(=S)n(C)c1NC(=O)c1ccc(C(C)(C)C)cc1, which activity change, negative = inhibition is on record?
Answer: active: -72.9%

Question: Which activity change, negative = inhibition does the source give for COC(=O)CSc1ccc(S(=O)(=O)N2CCOCC2)cc1[N+](=O)[O-] here?
Answer: inconclusive: -40.3%

Question: With CCC(C(=O)Nc1ccc(C)c(Cl)c1)n1c(=O)c(-c2ccccc2NC(C)=O)nc2ccccc21 (stereo unspecified) as the compound, how does the activity change, negative = inhibition read?
Answer: active: -96.6%

Question: For CCn1nc(C(=O)NNS(=O)(=O)c2cc(/C=C/C(=O)O)cc(OC)c2OC)c2ccccc2c1=O, which activity change, negative = inhibition is on record?
Answer: inconclusive: -46.5%

Question: For CSc1ccccc1OCc1cc(C(=O)N2CCSCC2)no1, which activity change, negative = inhibition is on record?
Answer: inconclusive: -40.7%

Question: Which activity change, negative = inhibition does the source give for CCOc1ccc(-c2nc3n(c(=O)c2C#N)CCCS3)cc1 here?
Answer: active: -90.8%

Question: For On1onc2c3cc(-c4ccccc4)nc3ccc21, which activity change, negative = inhibition is on record?
Answer: active: -108%

Question: With Cc1cc(C(=O)COC(=O)C2=COCCO2)c(C)n1-c1ccccc1 as the compound, how does the activity change, negative = inhibition read?
Answer: inconclusive: -44.1%

Question: For COc1ccc(CCNC(=O)c2ccc(CN3CCOCC3)cc2)cc1, which activity change, negative = inhibition is on record?
Answer: inconclusive: -41%

Question: With CCn1c(SCC(=O)Nc2ccc3c(c2)c2ccccc2n3CC)nnc1-c1ccco1 as the compound, how does the activity change, negative = inhibition read?
Answer: inconclusive: -53.5%

Question: With COc1cccc(NC(=O)Cn2nc(C)c3c(C)n(-c4ccccc4)nc3c2=O)c1 as the compound, how does the activity change, negative = inhibition read?
Answer: inconclusive: -48.3%

Question: Which activity change, negative = inhibition does the source give for CCOC(=O)CNC(=O)C1(/C=C/c2ccccc2)CC(=O)N1c1ccc(OC)cc1 (stereo unspecified) here?
Answer: inconclusive: -48.6%

Question: For CCOC(=O)C1CCCN(C(=O)c2cc3ccccc3cc2OC)C1 (stereo unspecified), which activity change, negative = inhibition is on record?
Answer: inconclusive: -50.9%

Question: With Cc1cccn2c(=O)cc(CSc3nnc(NC(=O)c4ccc(F)cc4)s3)nc12 as the compound, how does the activity change, negative = inhibition read?
Answer: inactive: -10.8%

Question: For CC(C)(C)c1ccc(/C=C2\Oc3cc(O)ccc3C2=O)cc1, which activity change, negative = inhibition is on record?
Answer: active: -91.5%

Question: With O=C(O)CC(c1ccccc1F)N1Cc2ccccc2C1=O (stereo unspecified) as the compound, how does the activity change, negative = inhibition read?
Answer: inconclusive: -42.6%

Question: Which activity change, negative = inhibition does the source give for COc1ccc(C2C(C(=O)O)c3ccccc3C(=O)N2Cc2ccco2)cc1 (stereo unspecified) here?
Answer: inactive: 33.1%

Question: For Cc1cccnc1NC(=O)COc1ccc2c(c1)CCC2, which activity change, negative = inhibition is on record?
Answer: inactive: -3.1%

Question: For Oc1ccc(N2CCN(c3nc(-c4cccs4)nc4ccccc34)CC2)cc1, which activity change, negative = inhibition is on record?
Answer: inconclusive: -50.7%

Question: Which activity change, negative = inhibition does the source give for Cc1nc(NC(=O)C2CCCC2)sc1Cc1ccc2c(c1)OCO2 here?
Answer: inconclusive: -42.7%

Question: Which activity change, negative = inhibition does the source give for Cc1ccccc1C(=O)N1CCN(c2ccc(NC(=O)c3ccc([N+](=O)[O-])o3)cc2)CC1 here?
Answer: active: -98.4%

Question: For COc1cc(C)ccc1OCCOc1c(C)cc(Cl)cc1Cl, which activity change, negative = inhibition is on record?
Answer: inconclusive: -53.7%

Question: For CCCc1cc(=O)[nH]c(Nc2ccc(OCC)cc2)n1, which activity change, negative = inhibition is on record?
Answer: inconclusive: -47.7%

Question: Which activity change, negative = inhibition does the source give for S=C(Nc1cccc(Cl)c1Cl)NC1CCN(Cc2ccccc2)CC1 here?
Answer: active: -65.7%

Question: For Cc1ccc(-c2nc3ncccn3c2Nc2ccc3c(c2)OCO3)o1, which activity change, negative = inhibition is on record?
Answer: inactive: 46.6%

Question: Which activity change, negative = inhibition does the source give for COc1ccc(-c2onc3ccc(C(=O)/C=C/N(C)C)cc23)cc1 here?
Answer: inactive: 24.5%

Question: With COc1ccc(CC(=O)OCC(=O)NCc2ccc(C)cc2)cc1OC as the compound, how does the activity change, negative = inhibition read?
Answer: inconclusive: -41.7%
